In patent US20190330628A1:
No constants are given. Whether binding was seen depends on the method and setting. In cells and extracts the contact can be indirect. Some entries that bind do so weakly or less than the wild type.

Protein sequences, listed by entry. Tags and fused reporters are not part of them. Residues count along the entry.
UniProt Q9UKV8: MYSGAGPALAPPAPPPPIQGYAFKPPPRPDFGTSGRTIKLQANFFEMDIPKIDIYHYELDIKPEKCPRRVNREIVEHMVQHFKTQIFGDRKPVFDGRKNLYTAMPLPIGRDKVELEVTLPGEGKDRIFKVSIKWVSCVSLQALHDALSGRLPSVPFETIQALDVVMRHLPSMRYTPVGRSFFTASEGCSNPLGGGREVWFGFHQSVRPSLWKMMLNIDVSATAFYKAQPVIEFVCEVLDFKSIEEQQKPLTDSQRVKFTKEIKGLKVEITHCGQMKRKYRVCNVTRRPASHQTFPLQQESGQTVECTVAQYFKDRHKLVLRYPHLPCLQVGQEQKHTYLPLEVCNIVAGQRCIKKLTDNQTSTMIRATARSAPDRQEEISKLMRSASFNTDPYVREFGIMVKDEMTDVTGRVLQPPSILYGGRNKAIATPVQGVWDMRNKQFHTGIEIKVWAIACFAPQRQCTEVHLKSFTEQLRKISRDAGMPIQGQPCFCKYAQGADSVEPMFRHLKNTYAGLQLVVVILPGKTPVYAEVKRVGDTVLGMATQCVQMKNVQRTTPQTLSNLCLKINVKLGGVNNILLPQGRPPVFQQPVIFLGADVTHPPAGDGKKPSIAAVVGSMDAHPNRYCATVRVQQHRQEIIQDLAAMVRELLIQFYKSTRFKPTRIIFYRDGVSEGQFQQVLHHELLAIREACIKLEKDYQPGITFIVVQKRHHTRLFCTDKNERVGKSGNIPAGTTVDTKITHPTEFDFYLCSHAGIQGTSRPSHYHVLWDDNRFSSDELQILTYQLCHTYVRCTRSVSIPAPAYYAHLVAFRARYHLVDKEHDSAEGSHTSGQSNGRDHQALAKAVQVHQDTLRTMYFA
UniProt P67809, residues 2-324: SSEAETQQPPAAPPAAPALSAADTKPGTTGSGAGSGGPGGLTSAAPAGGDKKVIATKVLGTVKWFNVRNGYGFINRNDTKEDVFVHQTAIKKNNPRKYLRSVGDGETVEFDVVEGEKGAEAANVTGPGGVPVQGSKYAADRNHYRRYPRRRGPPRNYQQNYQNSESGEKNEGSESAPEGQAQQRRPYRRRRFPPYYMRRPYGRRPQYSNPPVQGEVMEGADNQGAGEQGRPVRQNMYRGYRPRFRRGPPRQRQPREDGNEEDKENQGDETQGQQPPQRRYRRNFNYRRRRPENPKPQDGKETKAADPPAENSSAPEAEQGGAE

Legend:
Ago2-Flag [1] = biological target: Ago2-Flag (UniProt Q9UKV8); assay: co-immunoprecipitation of Ago, Western blot (FIG. 2d)
Ago2-Flag [2] = biological target: Ago2-Flag (UniProt Q9UKV8); assay: co-immunoprecipitation of Ago, Western blot; HA as IP and loading control

YB-1 (from UniProt P67809 2-324)
binding (Ago2-Flag [1]): binds | binding (Ago2-Flag [2]): binds
